Results published in publication PMC5150223.

Amino acid sequences for entries named in this document (tags omitted).
UniProt P42224: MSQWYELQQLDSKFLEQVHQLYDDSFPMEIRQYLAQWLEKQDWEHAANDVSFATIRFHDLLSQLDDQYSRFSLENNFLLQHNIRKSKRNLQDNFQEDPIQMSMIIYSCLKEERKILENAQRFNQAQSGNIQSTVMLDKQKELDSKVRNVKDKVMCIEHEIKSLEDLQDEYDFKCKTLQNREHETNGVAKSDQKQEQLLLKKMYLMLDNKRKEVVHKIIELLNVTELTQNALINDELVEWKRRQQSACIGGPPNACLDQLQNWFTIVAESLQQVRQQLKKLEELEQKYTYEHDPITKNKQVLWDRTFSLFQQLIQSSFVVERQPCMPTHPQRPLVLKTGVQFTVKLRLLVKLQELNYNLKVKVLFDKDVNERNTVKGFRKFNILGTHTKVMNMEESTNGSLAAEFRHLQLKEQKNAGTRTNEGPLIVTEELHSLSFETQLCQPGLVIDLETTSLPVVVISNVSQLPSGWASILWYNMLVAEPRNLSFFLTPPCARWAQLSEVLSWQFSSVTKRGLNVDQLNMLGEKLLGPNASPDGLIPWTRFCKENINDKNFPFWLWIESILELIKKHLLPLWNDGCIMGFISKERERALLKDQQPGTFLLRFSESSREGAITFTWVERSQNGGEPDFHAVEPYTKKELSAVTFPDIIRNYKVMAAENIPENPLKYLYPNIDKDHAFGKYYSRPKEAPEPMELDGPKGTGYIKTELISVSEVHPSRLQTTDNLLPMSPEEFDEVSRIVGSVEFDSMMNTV

Biological target: T1, type-I interferon (IFN-α/β) receptor subunit IFNAR2 (human (endogenous in RPE1)) (UniProt P48551)
T1 sequence: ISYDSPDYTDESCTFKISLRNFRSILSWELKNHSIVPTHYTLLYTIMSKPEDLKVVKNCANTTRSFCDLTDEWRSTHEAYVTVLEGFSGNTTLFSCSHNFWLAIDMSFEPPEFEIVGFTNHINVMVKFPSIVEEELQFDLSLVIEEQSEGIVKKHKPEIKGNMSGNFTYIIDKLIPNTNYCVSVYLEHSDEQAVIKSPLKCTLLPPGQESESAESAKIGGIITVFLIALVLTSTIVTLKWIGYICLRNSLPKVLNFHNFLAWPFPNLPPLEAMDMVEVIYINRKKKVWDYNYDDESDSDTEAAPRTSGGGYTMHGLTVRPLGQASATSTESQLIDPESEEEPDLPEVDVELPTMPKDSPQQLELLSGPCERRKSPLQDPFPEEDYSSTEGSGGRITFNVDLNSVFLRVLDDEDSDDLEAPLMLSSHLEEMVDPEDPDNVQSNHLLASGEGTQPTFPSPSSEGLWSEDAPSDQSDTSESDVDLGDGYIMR
Experiment: affinity purification with mass spectrometry; endogenous IFNAR2 precipitated with anti-IFNAR2 8F11 cross-linked to magnetic beads from RPE1 lysates (1% Tx100); cells with or without IFN-α or IFN-β (1,000 U ml^-1, 10 min, 37 °C), then proteinase K to digest cell surface proteins; eluates deglycosylated, SDS-PAGE, LTQ Orbitrap XL

binding	Substance
binds	STAT1 (from UniProt P42224 1-750)
binds	VPS26A (from UniProt O75436 1-327)

Results are given in words; binding and its absence hold for the method and conditions named. In cells and extracts the contact can be indirect. Here binding means that the protein was enriched with, or labelled near, the bait; the list need not be complete.
